# Percent effect of library compounds

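Cell assay of Leishmania donovani living inside macrophages; the read-out is not stated. Tested at 30 µM. Direction is inferred from retests: higher values go with stronger inhibition. Size under these conditions: about 69,000 compounds, about 1,000 of them at 50% or above in at least one test.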

Each number is a percent effect as filed.
How 0% and 100% were set is not recorded. Most values in the screen are low, and negative values occur.
This is an unselected part of the compounds tested.
Two or more numbers in one place are separate tests of the same structure; such repeats can differ widely.

| # | compound | percent effect |
|---|---|---|
| 1 | `CCc1cc(CN(C)C(=O)CN2CC(Cc3ccccc3)CC2=O)on1` (stereo not shown) | -9.294 |
| 2 | `Cc1nc(NC(=O)N2CCCC(C(C)(C)O)C2)nn1C` (stereo not shown) | -6.912 |
| 3 | `[H][C@@]12CC(=O)N(Cc3ccncc3)[C@@]1([H])CCN2Cc1cnn(C)c1` | 6.93 |
| 4 | `CCCn1nc(C)c(CNC(=O)C2COc3c(cccc3OC)C2)c1C` (stereo not shown) | 33.24 |
| 5 | `CC(C)CNC(=O)CNC(=O)NCC(O)c1ccc2ccccc2c1` (stereo not shown) | 10.52 |
| 6 | `Cc1nc(CCCC(=O)Nc2cccc(N3CCNC3=O)c2)cs1` | 14.86 |
| 7 | `Cc1ncc(CN2CCC(n3cc(-c4ccc(F)cc4)nn3)CC2)cn1` | 3.768 |
| 8 | `CC(NCc1c(C(C)C)nn(C)c1N1CCOCC1)C(N)=O` (stereo not shown) | -5.406 |
| 9 | `COc1cc(NC(=O)N(C)CCC2CC2)ncn1` | -6.792 |
| 10 | `CC(C)c1nn(C)c(N(C)C)c1CNCC(O)COc1ccccc1` (stereo not shown) | 26.5 |
| 11 | `CC(=O)N1CCCN(C(=O)NCC2(c3cccs3)CCCC2)CC1` | 10.55 |
| 12 | `O=C(O)C(F)(F)F.O=C(O)C(F)(F)F.[H][C@@]12C[C@@H](C(=O)NC(C)C)C[C@@]1([H])N(Cc1ccccn1)CCO2` | 7.988 |
| 13 | `[H][C@]12CC[C@]([H])(CN(c3nc(C)c4ccc(S(C)(=O)=O)cc4n3)C1)N2` | 13.94 |
| 14 | `O=C(O)c1ccn(-c2ccccc2NS(=O)(=O)c2cccc(Cl)c2F)n1` | 16.29 |
| 15 | `Cc1ccc(F)cc1C(=O)N1CCOCC12CCCC2` | 2.261 |
| 16 | `COCC(C)(C)NS(=O)(=O)C1CS(=O)(=O)c2ccccc21` (stereo not shown) | 5.785 |
| 17 | `CN1CCN(CC2CCN(C(=O)CCC3CCCCC3)CC2)CC1` | 16.19 |
| 18 | `COCc1ccc(C(=O)N2CCN(CCS(C)(=O)=O)CC2)cc1` | -10.9 |
| 19 | `O=C1NCCCc2[nH]c(Cc3cccc(F)c3)nc21` | 5.774 |
| 20 | `COCC[C@]1(O)CCN(C(=O)C2CCN(C3CCCC3)CC2)C[C@H]1C` | 5.064 |
| 21 | `Cc1cc(NC(=O)C(C)Cn2cncn2)no1` (stereo not shown) | 13.25 and 29.18 |
| 22 | `O=C(O)C(F)(F)F.[H][C@@]12CN(Cc3cncn3C)C[C@]1([H])OCCN2c1ncccn1` | 33.42 |
| 23 | `CC(=O)N1N=C(c2ccco2)OC1C(=O)N(CC(C)C)CC(C)C` (stereo not shown) | 39.44 |
| 24 | `CNc1ncccc1C(=O)N1CCN(C)C2(CCN(C)CC2)C1` | 7.464 |
| 25 | `COc1ccc(CN2Cc3cnn(C)c3C(COCC3CC3)C2)cc1` (stereo not shown) | 38.56 and 37.63 |
| 26 | `CN(CCc1nccs1)C(=O)C1(C#N)CCCCC1` | 28.27 |
| 27 | `O=C(O)C1(Cc2ccccc2Cl)CCN(c2ncccn2)CC1` | 13.21 |
| 28 | `CCn1ncnc1CN(C/C=C/c1ccccc1)CCOC` | 24.49 |
| 29 | `CC(C)(O)CSCCNCc1ccc(Cl)c2cccnc12` | 10.36 |
| 30 | `Cc1ccc(-c2ccnc(N(C)CC3CCCO3)n2)c(C)n1` (stereo not shown) | 19.59 |
| 31 | `COCCC(=O)Nc1ccnc(Oc2ccccc2)c1` | -1.232 |
| 32 | `CC(C)N1CCCC1c1cc(CCO)[nH]n1` (stereo not shown) | 10.06 |
| 33 | `Cc1csc(CNC(=O)NC(C)c2ccc3c(c2)CCC(=O)N3)n1` (stereo not shown) | 1.442 |
| 34 | `CSCCCN1CCCC(Cn2ccnc2)C1` (stereo not shown) | 25.79 |
| 35 | `COC(=O)COc1cccc(NS(=O)(=O)c2cc(C(=O)O)cs2)c1` | 9.229 |
| 36 | `O=C(Nc1cnn(CC(F)F)c1)c1cccc(-n2cnnn2)c1` | -23.85 |
| 37 | `CCC(CC)c1cc(CNC(=O)N2CCC(CO)CC2)on1` | -11.94 |
| 38 | `CCCc1nnc([C@H]2CCN(Cc3ncc[nH]3)C2)o1` | 8.299 |
| 39 | `CC(=O)Nc1cccc2c1ccn2CC(=O)NC(C)C` | 13.19 |
| 40 | `Cc1cccc(N2CCOCC3(C2)CN(c2ccccc2)C(=O)CO3)n1.O=C(O)C(F)(F)F` (stereo not shown) | 7.705 |
| 41 | `COc1cccc(-c2nc(C)c(C(=O)NC(CO)CCSC)s2)c1` (stereo not shown) | 8.766 |
| 42 | `Cc1cc(Br)cnc1N(C)CC1CCOC1` (stereo not shown) | -26.88 |
| 43 | `CC(C)OC(=O)N1CCC(Cc2ccc(C(=O)O)cc2)C1` (stereo not shown) | -8.305 |
| 44 | `O=C(NCC1CCN(Cc2ccsc2)CC1)NC1CC1` | -4.706 |
| 45 | `O=C(c1ccnc(-n2cnnc2)c1)N1CCCC2(CCNC2)C1` (stereo not shown) | 13.36 |
| 46 | `CCOCCNc1nc(-c2ccncc2)nc2c1CCNCC2` | -3.835 |
| 47 | `COc1ncc(C2(O)CCN(Cc3ccc(F)c(F)c3)CC2)c(OC)n1.Cl` | 5.811 and 6.323 |
| 48 | `O=C(O)C(F)(F)F.O=C(O)C(F)(F)F.c1ccc(CCN2CCn3cc(Cn4cccn4)nc3C2)cc1` | 16.28 |
| 49 | `NS(=O)(=O)Cc1ccc(CNC(=O)NCC2CCOC2)cc1` (stereo not shown) | 11.8 |
| 50 | `CSc1ncc(C(=O)N(C)C(C)Cc2ccccn2)cn1` (stereo not shown) | -27.78 |
| 51 | `O=C(c1c(O)cnc2ccccc12)N1CCN(CC(F)F)CC1` | 9.401 |
| 52 | `O=C(NC1CCN(C(=O)C2CCCCC2)C1)c1ccncc1Cl` (stereo not shown) | 10.45 |
| 53 | `CC(C)CC(=O)Nc1ccccc1Oc1ccsc1C(=O)O` | 1.023 |
| 54 | `Cc1ncc(C(=O)N2CCCN(Cc3ccccc3F)CC2)c(O)n1` | 22.85 and 3.506 |
| 55 | `[H][C@@]12CN(CC3CCCC3)C[C@]1([H])OCCN2c1cnccn1` | 14.42 |
| 56 | `Cc1nccn1C1CCCN(C(=O)c2cccc(OCC(N)=O)c2)C1` (stereo not shown) | 14.8 |
| 57 | `O=C(O)C(F)(F)F.[H][C@@]12CCN(CCOCc3ccccc3)C[C@@]1([H])[C@H](C(=O)N(C)C)CCO2` | 0.7924 |
| 58 | `COc1ccc(N2CCN(C(=O)OC(C)(C)C)C(C(=O)O)C2)cc1` (stereo not shown) | 27.76 |
| 59 | `CCN(C(=O)Cn1cc(NC(=O)C(C)(C)C)cn1)c1ccccc1` | -21.25 |
| 60 | `CC(Cc1ccco1)NC(=O)Nc1cccnc1` (stereo not shown) | -18.92 |
| 61 | `CCn1ccnc1C1CCN(C(=O)C(O)c2ccc(Cl)cc2)CC1` (stereo not shown) | 37.04 |
| 62 | `Cc1ccccc1-c1cncc(C2CCN(C3CCOCC3)CC2)n1` | -12.97 |
| 63 | `Cc1nccn1CCC1CCN(c2ccncn2)CC1` | -5.035 |
| 64 | `O=C(O)C1CCCN1c1nc(-c2ccc(Cl)c(Cl)c2)cc(C(F)(F)F)n1` (stereo not shown) | -7.677 |
| 65 | `CC(=O)N1CCN(C(=O)c2ccc(Sc3ccccn3)cc2)CC1` | -6.909 |

5 of the entries, repeated:

| compound | percent effect |
|---|---|
| `CSc1ncc(C(=O)N(C)C(C)Cc2ccccn2)cn1` (stereo not shown) | -27.78 |
| `CC(C)N1CCCC1c1cc(CCO)[nH]n1` (stereo not shown) | 10.06 |
| `Cc1csc(CNC(=O)NC(C)c2ccc3c(c2)CCC(=O)N3)n1` (stereo not shown) | 1.442 |
| `Cc1nccn1C1CCCN(C(=O)c2cccc(OCC(N)=O)c2)C1` (stereo not shown) | 14.8 |
| `CC(=O)N1N=C(c2ccco2)OC1C(=O)N(CC(C)C)CC(C)C` (stereo not shown) | 39.44 |

Source: ChEMBL document CHEMBL3988442, “University of Dundee, Small-Polar-MMV Screening Library” (2021).